Measured values as given in publication PMC5727386.
These are yes or no findings as the source states them, for the method shown. For part of these data: Sequences can lack the tags named with a protein.

Protein sequences, listed by entry. Tags and fused reporters are not part of them.
UniProt P60953: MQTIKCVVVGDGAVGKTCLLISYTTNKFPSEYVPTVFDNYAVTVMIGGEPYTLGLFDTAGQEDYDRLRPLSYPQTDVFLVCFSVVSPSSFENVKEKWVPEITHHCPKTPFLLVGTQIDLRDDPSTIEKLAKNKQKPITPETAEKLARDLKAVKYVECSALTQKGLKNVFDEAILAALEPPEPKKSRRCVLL
UniProt P61586: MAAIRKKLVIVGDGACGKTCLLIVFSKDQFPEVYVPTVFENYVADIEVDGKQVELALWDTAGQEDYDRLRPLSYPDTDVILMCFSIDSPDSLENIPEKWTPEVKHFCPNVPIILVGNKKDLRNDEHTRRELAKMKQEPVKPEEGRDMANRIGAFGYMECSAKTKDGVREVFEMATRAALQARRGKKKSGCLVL

Tests used:
[1] = biological target: T1, His-tagged Bcr-Abl DH–PH tandem domain (residues 487–893) (UniProt P11274); assay: SEC; co-migration on analytical Superdex75 10/300; DH–PH or DH constructs mixed with GTPases 1:2, dialysed into EDTA- or MgCl2-containing buffer overnight at 4 °C; both purified
T1 sequence: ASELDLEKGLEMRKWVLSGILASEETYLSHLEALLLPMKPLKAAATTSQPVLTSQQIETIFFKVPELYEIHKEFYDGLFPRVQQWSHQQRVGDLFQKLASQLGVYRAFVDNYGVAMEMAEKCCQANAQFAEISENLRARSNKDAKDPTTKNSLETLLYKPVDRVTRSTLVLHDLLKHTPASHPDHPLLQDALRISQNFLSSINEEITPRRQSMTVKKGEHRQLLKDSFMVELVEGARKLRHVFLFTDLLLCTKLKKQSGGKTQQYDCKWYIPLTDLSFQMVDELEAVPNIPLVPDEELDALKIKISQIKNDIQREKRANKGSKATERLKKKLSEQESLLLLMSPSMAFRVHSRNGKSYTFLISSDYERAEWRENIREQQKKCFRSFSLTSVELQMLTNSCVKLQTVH

[2] = biological target: T1, His-tagged Bcr-Abl DH–PH tandem domain (residues 487–893); assay: pull-down; Ni-NTA Sepharose; His-tagged DH–PH or DH constructs as bait, untagged GTPases as prey, 1:2 molar ratio; dialysed into 25 mM Tris-HCl pH 7.5, 150 mM NaCl, 2 mM DTT with 1 mM EDTA or 10 mM MgCl2; 2 h at 4 °C; Coomassie SDS-PAGE; both purified
[3] = biological target: T2, Bcr-Abl DH-PH tandem domain (residues 487-893), sample of the GTPase interaction studies (UniProt P11274); assay: SEC; DH-PH or DH construct mixed with GTPase 1:2, dialysed overnight at 4 °C into 25 mM Tris-HCl pH 7.5, 150 mM NaCl, 2 mM DTT with 1 mM EDTA or 10 mM MgCl2; analytical Superdex75 10/300; both purified
T2 sequence: T1 sequence

Measured: binding

Cdc42 (from UniProt P60953 1-191) (enzyme)
no binding: [1] | [2] | [3]

RhoA (from UniProt P61586 1-193) (enzyme)
no binding: [1] | [2] | [3]
